Source: PMC10942602
These are yes or no findings as the source states them, for the method shown. Binding seen in cells or lysates may run through a third protein. Some entries that bind do so weakly or less than the wild type.

Sequences of proteins named here, by UniProt entry; tags and fusion partners are left off. A change or cut given only in a name is not applied to a line headed by its entry. A line that says so, or that is headed by a name, gives the form on record, which may keep a tag or linker. Residues count along the entry.
GFP-C1ql2 (Q8CFR0, residues 22-287): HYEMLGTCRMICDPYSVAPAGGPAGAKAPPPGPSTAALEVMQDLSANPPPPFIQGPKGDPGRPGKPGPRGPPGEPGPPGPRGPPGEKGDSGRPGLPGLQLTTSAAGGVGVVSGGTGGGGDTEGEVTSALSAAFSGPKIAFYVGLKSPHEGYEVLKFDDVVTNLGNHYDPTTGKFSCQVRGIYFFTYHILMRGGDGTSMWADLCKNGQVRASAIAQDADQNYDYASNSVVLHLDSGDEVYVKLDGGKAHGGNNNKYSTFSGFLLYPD
GFP-C1ql2.K262E (Q8CFR0, form named): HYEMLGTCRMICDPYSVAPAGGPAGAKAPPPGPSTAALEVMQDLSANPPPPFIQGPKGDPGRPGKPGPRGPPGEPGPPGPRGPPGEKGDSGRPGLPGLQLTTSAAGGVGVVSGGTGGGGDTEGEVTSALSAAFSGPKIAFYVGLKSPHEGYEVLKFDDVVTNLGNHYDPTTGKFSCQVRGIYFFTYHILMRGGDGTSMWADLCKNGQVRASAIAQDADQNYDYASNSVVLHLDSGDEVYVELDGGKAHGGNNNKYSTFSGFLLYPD
UniProt P39087, residues 32-908: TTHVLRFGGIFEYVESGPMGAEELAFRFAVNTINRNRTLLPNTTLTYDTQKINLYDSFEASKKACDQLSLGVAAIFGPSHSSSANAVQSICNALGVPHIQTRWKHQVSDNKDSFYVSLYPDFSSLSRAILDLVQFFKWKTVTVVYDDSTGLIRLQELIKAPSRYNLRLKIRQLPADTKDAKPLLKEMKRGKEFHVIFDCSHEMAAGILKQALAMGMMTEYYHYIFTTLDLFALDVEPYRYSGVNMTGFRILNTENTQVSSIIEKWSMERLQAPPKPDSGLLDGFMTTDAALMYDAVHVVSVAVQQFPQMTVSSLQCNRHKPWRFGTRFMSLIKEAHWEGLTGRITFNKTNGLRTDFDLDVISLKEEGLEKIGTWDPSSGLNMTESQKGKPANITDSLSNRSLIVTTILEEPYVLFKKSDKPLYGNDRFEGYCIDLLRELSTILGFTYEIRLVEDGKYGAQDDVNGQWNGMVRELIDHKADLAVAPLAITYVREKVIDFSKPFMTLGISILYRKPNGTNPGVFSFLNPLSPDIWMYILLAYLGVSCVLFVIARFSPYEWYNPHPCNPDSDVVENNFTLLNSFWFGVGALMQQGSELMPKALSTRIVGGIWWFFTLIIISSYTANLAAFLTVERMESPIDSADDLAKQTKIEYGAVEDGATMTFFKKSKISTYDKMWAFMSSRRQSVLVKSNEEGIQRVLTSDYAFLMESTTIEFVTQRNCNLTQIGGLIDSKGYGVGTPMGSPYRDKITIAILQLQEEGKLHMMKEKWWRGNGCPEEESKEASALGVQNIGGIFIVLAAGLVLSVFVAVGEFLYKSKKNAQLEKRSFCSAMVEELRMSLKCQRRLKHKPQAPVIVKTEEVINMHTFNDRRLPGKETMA

Assays:
GFP-C1ql2 (mouse) = GFP-C1ql2 (mouse) (UniProt Q8CFR0); assay: co-IP; protein extract of HEK293 cells co-expressing GluK2-myc-flag and GFP-C1ql2 or GFP-C1ql2.K262E; Protein A magnetic beads with rabbit anti-C1ql2 (or anti-flag, or IgG control), overnight at 4 °C; lysis buffer 25 mM Tris pH 7.4, 150 mM NaCl, 2 mM MgCl2, 1% Igepal, 5% glycerol; blot with anti-flag M2
GFP-C1ql2.K262E (mouse) = GFP-C1ql2.K262E (mouse) (UniProt Q8CFR0); assay: as above

- binding (GFP-C1ql2 (mouse)): binds
- binding (GFP-C1ql2.K262E (mouse)): binds
Substance: GluK2-myc-flag (from UniProt P39087 32-908) (receptor)
